The record followed here is article PMC7775463.

Sequences of proteins named here, by UniProt entry; tags and fusion partners are left off. A change or cut given only in a name is not applied to a line headed by its entry.
UniProt A0AA48WN41: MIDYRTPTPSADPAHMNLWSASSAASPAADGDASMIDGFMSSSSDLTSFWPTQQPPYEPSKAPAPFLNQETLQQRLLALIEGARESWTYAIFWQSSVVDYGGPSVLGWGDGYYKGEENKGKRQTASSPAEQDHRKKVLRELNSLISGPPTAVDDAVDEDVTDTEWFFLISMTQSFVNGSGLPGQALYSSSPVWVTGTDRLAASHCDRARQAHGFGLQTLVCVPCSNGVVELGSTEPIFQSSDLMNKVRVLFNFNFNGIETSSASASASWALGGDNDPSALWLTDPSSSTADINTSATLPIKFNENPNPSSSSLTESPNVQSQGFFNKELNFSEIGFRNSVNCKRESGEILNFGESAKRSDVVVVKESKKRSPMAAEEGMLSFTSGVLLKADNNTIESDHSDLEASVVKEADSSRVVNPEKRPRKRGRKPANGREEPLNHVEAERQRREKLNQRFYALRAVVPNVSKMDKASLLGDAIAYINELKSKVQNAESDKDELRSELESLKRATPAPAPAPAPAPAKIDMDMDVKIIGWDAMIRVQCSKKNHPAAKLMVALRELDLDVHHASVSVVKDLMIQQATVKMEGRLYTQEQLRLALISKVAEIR

These are yes or no findings as the source states them, for the method shown. Binding seen in cells or lysates may run through a third protein. Binding can be weak; no strength is given.

In the assay the target is SmMYB1-cYFP (Salvia miltiorrhiza). Put plainly: split reporter; BiFC in 6-week-old N. benthamiana leaves; SmMYB1-cYFP and nYFP-SmMYC2 coexpressed by Agrobacterium infiltration; YFP examined by confocal microscopy 48 h after infiltration.

On to nYFP-SmMYC2 (from UniProt A0AA48WN41), for which the binding result is “binds”.
